Assay results from article PMC7399043.
These are yes or no findings as the source states them, for the method shown. In cells and extracts the contact can be indirect. Some binding calls cover weakened binding; strength is not graded here. For some assays here: Sequences can lack the tags named with a protein.

Amino acid sequences for entries named in this document (tags omitted).
UniProt Q99814: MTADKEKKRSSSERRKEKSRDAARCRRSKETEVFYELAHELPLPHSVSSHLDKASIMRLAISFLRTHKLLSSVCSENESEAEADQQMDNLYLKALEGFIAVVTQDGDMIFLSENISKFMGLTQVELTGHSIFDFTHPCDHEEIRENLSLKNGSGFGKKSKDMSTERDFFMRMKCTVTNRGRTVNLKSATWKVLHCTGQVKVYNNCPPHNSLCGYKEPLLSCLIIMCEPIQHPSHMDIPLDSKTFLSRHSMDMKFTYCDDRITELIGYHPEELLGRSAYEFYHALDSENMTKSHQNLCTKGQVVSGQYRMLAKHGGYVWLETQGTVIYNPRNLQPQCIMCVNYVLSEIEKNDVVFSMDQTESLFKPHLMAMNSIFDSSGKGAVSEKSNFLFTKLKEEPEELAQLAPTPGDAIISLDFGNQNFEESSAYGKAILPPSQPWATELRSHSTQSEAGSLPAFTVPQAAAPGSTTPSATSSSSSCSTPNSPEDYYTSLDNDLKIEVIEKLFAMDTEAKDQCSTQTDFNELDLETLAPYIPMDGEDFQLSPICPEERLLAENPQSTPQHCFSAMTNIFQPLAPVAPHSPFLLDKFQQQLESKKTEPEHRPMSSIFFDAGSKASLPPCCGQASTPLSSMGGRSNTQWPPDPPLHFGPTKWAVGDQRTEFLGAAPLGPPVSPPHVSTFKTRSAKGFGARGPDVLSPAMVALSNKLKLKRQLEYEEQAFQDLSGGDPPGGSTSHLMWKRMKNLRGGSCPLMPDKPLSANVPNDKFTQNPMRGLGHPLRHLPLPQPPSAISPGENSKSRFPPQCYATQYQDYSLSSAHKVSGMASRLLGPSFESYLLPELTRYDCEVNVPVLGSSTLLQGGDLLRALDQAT

Key:
[1] = biological target: T1, Endogenous folliculin (FLCN) (human (endogenous in 786-O, ACHN and HK-2)) (UniProt Q8NFG4); assay: co-IP; endogenous FLCN and HIF2α immunoprecipitated with anti-FLCN or anti-HIF2α antibody from 786-O, ACHN and HK-2 lysates; IgG as control; Western blot
T1 sequence: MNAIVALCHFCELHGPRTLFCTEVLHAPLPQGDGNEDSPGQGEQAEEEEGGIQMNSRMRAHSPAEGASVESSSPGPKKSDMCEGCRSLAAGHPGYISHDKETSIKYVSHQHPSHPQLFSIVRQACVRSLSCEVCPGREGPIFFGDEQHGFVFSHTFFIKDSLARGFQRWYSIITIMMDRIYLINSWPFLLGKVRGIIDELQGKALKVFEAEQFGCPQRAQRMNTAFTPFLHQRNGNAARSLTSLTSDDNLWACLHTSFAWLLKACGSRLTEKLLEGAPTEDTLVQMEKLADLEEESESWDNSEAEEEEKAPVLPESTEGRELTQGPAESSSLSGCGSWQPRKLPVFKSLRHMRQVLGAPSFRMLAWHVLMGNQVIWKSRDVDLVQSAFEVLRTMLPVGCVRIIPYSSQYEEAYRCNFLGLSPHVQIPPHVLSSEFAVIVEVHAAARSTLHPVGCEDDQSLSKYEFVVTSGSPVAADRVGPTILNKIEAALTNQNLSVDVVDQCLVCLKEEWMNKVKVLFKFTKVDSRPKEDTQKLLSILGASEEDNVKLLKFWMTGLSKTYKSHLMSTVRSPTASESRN

FLAG-FLCN (folliculin) = biological target: T2, FLAG-FLCN (folliculin) (UniProt Q8NFG4); assay: co-IP; FLAG-FLCN and GFP-HIF2α in ACHN cells; each precipitated in turn, Western blot
T2 sequence: T1 sequence

binding [1]	binding (FLAG-FLCN (folliculin))	Substance
binds		Endogenous HIF2α (from UniProt Q99814 1-870)
	binds	GFP-HIF2α (from UniProt Q99814 1-870)
